Results: PubChem BioAssay AID1347426 (Functional Genomics Laboratory (NCATS/FGL), 2020)
The campaign covered roughly 31,000 sequences. About 1,400 (4.5%) were called active.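 The calls were made as follows: active = median seed-adjusted z-score above 1 or below -1; inactive = the rest.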 The list shows a part of the results.

Experiment: Novel Modifiers of Survival Motor Neuron (SMN) Protein: Gene Identification via Genome-wide siRNA Screen;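 also: luminescence tracks full-length SMN protein made from the SMN2 reporter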
Details: HEK293T SMN2-luciferase reporter, siRNA knockdown, 72 h; actives lie on both sides
How it was run: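 Luciferase signal, proportional to full-length SMN made from an SMN2 cDNA reporter in stable HEK293T cells, was read 72 h after siRNA reverse transfection. Values were expressed as MAD scores after non-targeting-control normalization and log10 conversion; seed analysis flagged off-targets.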
In the case of ACGGGAACAUGUACAUUGATT against SIRT7, the median seed-adjusted z-score was inactive: -0.427. For GGUGUUUUCAGGACCAGGATT against TNFRSF9, the median seed-adjusted z-score was inactive: 0.859. With CAUCAACUAUAUCACAGUATT against ATP13A5 the median seed-adjusted z-score was inactive: 0.241. With CACGUGCAGAGUGUCGAUATT against EEF1D the median seed-adjusted z-score was inactive: 0.421. For CACCAAGAGUGAAAUUGCATT against KRT4, the median seed-adjusted z-score was inactive: 0.336. In the case of GGCCUUCAUUGGGAACUUUTT against FMNL2, the median seed-adjusted z-score was inactive: 0.293. With GGUUCUAGCAAACACCAAUTT against CALM3 the median seed-adjusted z-score was inactive: 0.225. For GAAGAAAUGUUGUUCGAAUTT against KAL1, the median seed-adjusted z-score was inactive: 0.0824. For GCCUUUCCAUGUCAUGAGATT against ZDHHC4, the median seed-adjusted z-score was inactive: 0.181. With GCGUUAUCCUCGUACCUUUTT against STC2 the median seed-adjusted z-score was inactive: -0.00039. In the case of GCAAUGAUGUCGAUGACCATT against CDK5, the median seed-adjusted z-score was inactive: 0.402. For CAUCACUGAUCAAGCCUAATT against SLC13A4, the median seed-adjusted z-score was inactive: 0.446. With GCCUCUACAGCAGAAGAAATT against LAMB2 the median seed-adjusted z-score was active: 1.12. With GCGACUUGUCUUCUUCUUUTT against NDUFB11 the median seed-adjusted z-score was inactive: 0.014. With GGAAGAUCCGAUCCAAUCATT against IQGAP3 the median seed-adjusted z-score was inactive: -0.183. For GAGAAUCAAGAGUUCUUAATT against NES, the median seed-adjusted z-score was inactive: 0.613. For CGAGUGAUGCGAUUGGUGATT against CACNA1D, the median seed-adjusted z-score was inactive: -0.0856. In the case of GAAGAGCUCUUAGAGUGUATT against BCAT1, the median seed-adjusted z-score was inactive: -0.604. In the case of GAUCUAUUGGAUUAGCCUATT against FST, the median seed-adjusted z-score was inactive: 0.357. For ACGGCACGCUUGUACAUGATT against TGM3, the median seed-adjusted z-score was inactive: 0.257. For GAUCUACCGUCAAAGCUCUTT against ABCC8, the median seed-adjusted z-score was inactive: 0.24. With GCCUAAGUUUUUGACUAAATT against HBS1L the median seed-adjusted z-score was inactive: -0.509. For GAAUGUGCAUCCUUAUAUATT against HOXD10, the median seed-adjusted z-score was inactive: -0.374. For CAAGAAUUGUUGUACUAGUTT against ZNF556, the median seed-adjusted z-score was inactive: 0. In the case of GGAGGAGCCUAAGAUGUCATT against ZNF442, the median seed-adjusted z-score was active: 1.06. In the case of GCAAGAUCGUCAACUAUUATT against IPPK, the median seed-adjusted z-score was inactive: 0.389. For CGGUCAAUGUUCUAAAGAUTT against CACNG5, the median seed-adjusted z-score was inactive: -0.41. With GCAUGGAAAAGGUUCAUGATT against CATSPER4 the median seed-adjusted z-score was inactive: -0.669. For GCUUUGAGAUUUUCGAGGATT against MYO1B, the median seed-adjusted z-score was inactive: 0.903. With UGACAAUACCUACUAUGCATT against CAMKK2 the median seed-adjusted z-score was inactive: -0.121. For GAAGAAACUUGUGAACGAATT against MX1, the median seed-adjusted z-score was active: -1.49. For GCCCAUAGGUUGGUUCUCATT against KLHL4, the median seed-adjusted z-score was inactive: 0. In the case of ACCCUUCUCUGUCCAUUGATT against UCN, the median seed-adjusted z-score was inactive: -0.472. For UCAUCAACAAGGAAAAUUATT against NPTN, the median seed-adjusted z-score was inactive: 0.133. With CCUAAAAAGUGACAUCGGUTT against CBARA1 the median seed-adjusted z-score was inactive: -0.0426. For GAGUGGUAUUUGAUCAGGATT against ACO1, the median seed-adjusted z-score was inactive: -0.197. In the case of GAGUGUAUGUGAUCAUCGATT against PRKCE, the median seed-adjusted z-score was inactive: 0.568. With GAAGUUUCCAAAUACGAGATT against CDK9 the median seed-adjusted z-score was inactive: 0.901. For GGCAUAUCUCUUCACUAUATT against LPHN2, the median seed-adjusted z-score was inactive: -0.817. With CAGGUACUAUGAUCAGAUUTT against PLXNB3 the median seed-adjusted z-score was inactive: -0.0652. In the case of GGGCUUUGCUAUUUCAACUTT against SDHD, the median seed-adjusted z-score was inactive: -0.538. In the case of CAAGGUGUUUUACCUGAAATT against YWHAH, the median seed-adjusted z-score was inactive: -0.125. In the case of GCUUUGGAAGAAUACGUUATT against NR2F2, the median seed-adjusted z-score was inactive: 0.129. For GAAACUGCUAUAUUUGAAUTT against ZNF587, the median seed-adjusted z-score was inactive: -0.178. For GCUACUUCGUGACGCGAGATT against HS3ST6, the median seed-adjusted z-score was inactive: 0. For ACAGGUCAGCAAAAACAGUTT against KREMEN2, the median seed-adjusted z-score was inactive: -0.0883. In the case of CAGUGAGAUUGGGAUGAAATT against CD247, the median seed-adjusted z-score was inactive: -0.522. In the case of CUCUGAACAUCAACCCGGATT against DMRTB1, the median seed-adjusted z-score was inactive: -0.393. For GGACAUUCUAGAGAAAGAATT against SUPT5H, the median seed-adjusted z-score was active: -4.02. In the case of UGAGUAUGCCUACCUCAAATT against HNF4A, the median seed-adjusted z-score was inactive: -0.0274. With GAGAUUGGGUGGAAGAGAATT against FOXD2 the median seed-adjusted z-score was inactive: -0.0853. In the case of GCUCGAUUCCAGAUAGGAATT against DDX52, the median seed-adjusted z-score was inactive: -0.2. With GGAUCUAUCGUCAAUAUCATT against PECR the median seed-adjusted z-score was inactive: -0.347. With GGAAAUAGAUGGGCAACUUTT against GBP5 the median seed-adjusted z-score was inactive: -0.194. For UCAUCAUGGUUCAUAUUUATT against PDCL, the median seed-adjusted z-score was inactive: -0.802. For GGAAUAUGAGGUGACCGUUTT against IL17RA, the median seed-adjusted z-score was active: -1.29. For GGACGACGACGAGUUUGCATT against EHD3, the median seed-adjusted z-score was inactive: 0.569. In the case of GCUGGUGACUGGUACUUCATT against ADAM15, the median seed-adjusted z-score was inactive: -0.682. With CCUACGGGAUUGGACUGAATT against ETFDH the median seed-adjusted z-score was inactive: 0.154. In the case of GGACAUCACAGGCUAUUCATT against SYT6, the median seed-adjusted z-score was inactive: -0.072. With CACCGACUAUCUCACGUGATT against PSMB2 the median seed-adjusted z-score was inactive: 0. For GCUUGUUACACGUACUCUATT against ACSL5, the median seed-adjusted z-score was inactive: 0.109. For GGAAUUCGAUGACCCGCUATT against PPP1R3B, the median seed-adjusted z-score was inactive: -0.298. In the case of CAUUAUAUGCUGUACAAGATT against ITGB5, the median seed-adjusted z-score was inactive: -0.00882. In the case of GGUGAUCUAUUAUAAGGAUTT against FCER1A, the median seed-adjusted z-score was inactive: -0.0293. With GGAGGAACAGCAGACCUUATT against ZNF76 the median seed-adjusted z-score was inactive: -0.0395. With GGAAUAAUCUUUGCUGAGATT against TICAM2 the median seed-adjusted z-score was inactive: -0.256. For GUACCAAAGUGCAAUCAAATT against PPARG, the median seed-adjusted z-score was inactive: -0.0309. For GCACUGAGACCAUUGAAGATT against PCTK3, the median seed-adjusted z-score was inactive: 0. In the case of GAAUUUUGAUGGACAAGUUTT against RAG2, the median seed-adjusted z-score was inactive: 0.138. With GGAUUCAUCCUUACCCUCATT against PPP2R4 the median seed-adjusted z-score was inactive: 0.318. For GGAUGUCAGUGUUUCGGAATT against UHMK1, the median seed-adjusted z-score was inactive: -0.269. For CUGUGACACUUAUAAAUAUTT against ATP6V1G2, the median seed-adjusted z-score was inactive: -0.664. For CGGCAUCUCGUCCUACUUUTT against DDX51, the median seed-adjusted z-score was inactive: -0.0715. For AGGUUUACGUGUAAUUCCATT against ZSCAN5A, the median seed-adjusted z-score was inactive: 0.31. For CCAUCGAACGGAAUCAGGATT against PPP6C, the median seed-adjusted z-score was inactive: -0.0212. With CCUCUUACACUUUUCCGAATT against PECI the median seed-adjusted z-score was inactive: -0.0254. In the case of CAUCUUUCCUAAAGAGUUUTT against POLR2D, the median seed-adjusted z-score was active: -3.79. With AGACCUUCGCCUUUCCCUATT against DBX1 the median seed-adjusted z-score was inactive: 0.0137. In the case of CCAUCUAUAGGACCGCCUATT against EGFL7, the median seed-adjusted z-score was inactive: 0.8. In the case of GCAGAGACGGCAGACAUGATT against CABP2, the median seed-adjusted z-score was inactive: 0.323. With GACCAAAAGAAGUACUUAATT against MTMR6 the median seed-adjusted z-score was inactive: -0.395. For CUCUCGUCUUACUUACAUATT against COL17A1, the median seed-adjusted z-score was inactive: 0.252. For GGACUUACCUCAAUCAGAUTT against ZDHHC13, the median seed-adjusted z-score was inactive: -0.381. With GAGCUUCAAUAUCCCUCUATT against HDAC3 the median seed-adjusted z-score was inactive: 0.579. With GCAAGGAGCUGAUCGAUCUTT against PLCE1 the median seed-adjusted z-score was inactive: 0.597. In the case of AGAUCUAUCCUAGCCGGGATT against RING1, the median seed-adjusted z-score was inactive: 0.685. With CCAGUGAUCUAGAACAACUTT against SLC30A9 the median seed-adjusted z-score was inactive: -0.0779. With CCUUAACAAUAGUAAUGGATT against EXOSC8 the median seed-adjusted z-score was inactive: 0.203. With CCACCACCGUGUUCAACUUTT against DUSP1 the median seed-adjusted z-score was inactive: 0.336. For CGACCGUCAUUACCACCAUTT against KCNK5, the median seed-adjusted z-score was inactive: 0. With GGAAGUCCACAAUGACUAUTT against GDPD5 the median seed-adjusted z-score was inactive: -0.0618. In the case of CAUGCUGCAUGGUAUCCAATT against NUP88, the median seed-adjusted z-score was inactive: 0.709. In the case of GAACAAGAACUGAGGGAAATT against BCL2L10, the median seed-adjusted z-score was inactive: 0.361. With GGACGAAUGAUGCAGUUAATT against PLCH1 the median seed-adjusted z-score was inactive: -0.00634. For GGCAUUGACUUAGUUCAAATT against IL10RA, the median seed-adjusted z-score was inactive: 0.156. With GCUGUUACUUUGCUAGGAATT against HACL1 the median seed-adjusted z-score was inactive: -0.0664. In the case of GGAUAGCUAAAGAAAUUCATT against IMPA1, the median seed-adjusted z-score was inactive: -0.295. With GGUCUGCGGUUGAAGCUAUTT against NR1H4 the median seed-adjusted z-score was inactive: -0.056. For GAAGUGACCUAUGACAAAATT against PTP4A3, the median seed-adjusted z-score was inactive: 0.354. For CUACCGUGCAAGUUCAUUATT against CD3D, the median seed-adjusted z-score was inactive: -0.403. In the case of GGAAUGAUUGCAAUUAGUATT against SERPINI1, the median seed-adjusted z-score was inactive: 0.127. For GGAGCUCAUUUGACAUGUATT against KIR2DL5B, the median seed-adjusted z-score was active: 1.72. For GAGCUGUACCGUGACAUUUTT against NFE2, the median seed-adjusted z-score was inactive: -0.0226. In the case of GGAUGCUUCUGGGAAUUUATT against MAT2B, the median seed-adjusted z-score was inactive: -0.554. In the case of GAGUGGAAGUCAUACCCUATT against TTLL3, the median seed-adjusted z-score was inactive: -0.194. For CCUUUGCUAUGAUCAUUGATT against PCBP2, the median seed-adjusted z-score was inactive: 0.
